This test addresses human IL-17RA (human) (UniProt Q96F46). Put plainly: description of the panel of Table 34; binding assay not given at this place.

Protein sequences, listed by entry. Tags and fused reporters are not part of them. Residues count along the entry.
UniProt Q96F46, residues 33-866: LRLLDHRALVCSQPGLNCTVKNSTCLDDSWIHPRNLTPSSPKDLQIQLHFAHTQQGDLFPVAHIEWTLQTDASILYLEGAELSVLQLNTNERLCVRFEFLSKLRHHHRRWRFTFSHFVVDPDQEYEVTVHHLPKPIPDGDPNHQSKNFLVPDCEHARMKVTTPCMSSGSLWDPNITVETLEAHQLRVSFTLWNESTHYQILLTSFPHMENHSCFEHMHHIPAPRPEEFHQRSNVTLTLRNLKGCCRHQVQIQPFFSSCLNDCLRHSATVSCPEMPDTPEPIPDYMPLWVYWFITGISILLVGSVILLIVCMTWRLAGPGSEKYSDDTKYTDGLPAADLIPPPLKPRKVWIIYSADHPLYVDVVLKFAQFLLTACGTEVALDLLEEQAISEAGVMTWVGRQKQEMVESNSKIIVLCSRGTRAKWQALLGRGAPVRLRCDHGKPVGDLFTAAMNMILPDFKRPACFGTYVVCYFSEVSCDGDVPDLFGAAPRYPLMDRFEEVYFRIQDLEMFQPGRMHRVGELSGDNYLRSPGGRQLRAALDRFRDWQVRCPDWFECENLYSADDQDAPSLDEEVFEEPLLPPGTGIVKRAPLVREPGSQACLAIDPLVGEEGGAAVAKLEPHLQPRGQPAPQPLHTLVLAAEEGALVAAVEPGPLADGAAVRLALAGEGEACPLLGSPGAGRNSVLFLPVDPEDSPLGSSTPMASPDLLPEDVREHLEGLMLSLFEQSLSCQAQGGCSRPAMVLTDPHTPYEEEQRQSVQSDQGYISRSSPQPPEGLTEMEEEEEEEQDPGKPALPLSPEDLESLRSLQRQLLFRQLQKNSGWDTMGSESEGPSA

These are yes or no findings as the source states them, for the method shown. Some entries that bind do so weakly or less than the wild type.

B1: 2.67.1 (antibody, V domains shown)
VH: QVQLVQSGAEVKKPGASVKVSCKASGYTLTRYGISWVRQAPGQGLEWMGWISAYNGNTNYAQKLQGRVTMTTDTSTSTAYMELRSLRSDDTAVYYCARRDYDILTGYYNGFDPWGQGTLVTVSS
VL: DIQMTQSPSSLSASVGDRVTITCRASQGIRNDLGWYQQKPGKAPKRLIYAASSLQSGVPSRFSGSGSGTEFTLTISSLQPEDFATYYCLQHKSYPLTFGGGTKVEIK
Consider B1, for which the binding entry is listed as “binds”.

B2: 2.98.1 (antibody, V domains shown)
VH: QVQLVQSGAEVKKPGASVKVSCKASGYTLTRYGISWVRQAPGQGLEWMGWISAYNGNTNYAQKLQGRVTMTTDTSTSTAYMELRSLRSDDTAVYYCARRDYDILTGYYNGFDPWGQGTLVTVSS
VL: DIQMTQSPSSLSASVGDRVTITCRASQGIRNDLGWYQQKPGKAPKRLIYAASSLQSGVPSRFSGSGSGTEFTLTISSLQPEDFATYYCLQHKSYPLTFGGGTKVEIK
Consider B2, for which the binding result is listed as “binds”.
